Test results published in PubChem BioAssay AID2685 (National Center for Advancing Translational Sciences (NCATS), 2010).
Some of the results follow. Further columns of the screen follow, without active or inactive calls. The list favours compounds with an active or inconclusive main result. Words in brackets tell the shape of the fitted curve; partial curves, single points and poor fits give uncertain potencies.

Assay: qHTS Assay for Lipid Storage Modulators in Drosophila S3 Cells;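 for cell number change: cells counted by Cell Tracker Red CMTPX staining in the red channel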
Details: BODIPY lipid droplet fluorescence, 18-24 h; for cell number change: measured here: cell count max response, cells fed with added oleic acid
Method in brief: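 Drosophila S3 cells got compounds at several concentrations plus oleic acid (400 uM solution). Laser-scanning cytometry with 488 nm excitation read lipid droplets at 500-530 nm and cells at 575-640 nm. Percent activity was relative to 20 uM Triacsin C.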

[1] = measured here: lipid fluorescence (Fed channel) AC50, cells fed with added oleic acid
[2] = measured here: cell number channel AC50, cells fed with added oleic acid

Compound	cell number change [%]	AC50 [1]	AC50 [2]
O=C1c2cccnc2C(=O)N1Cc1ccc(S(=O)(=O)NCc2ccco2)cc1	-0.917		
CCCN1C(=O)c2ccccc2NC1c1ccc(OC)cc1OC (centres undefined)	-4.82	7.31 µM [rising, partial curve]	
CC(=O)Nc1ccc(NC(=O)C2CCCN(S(=O)(=O)c3ccc(Cl)cc3)C2)cc1 (centres undefined)	47.4	0.58 µM [rising, single point]	29.1 µM [rising, single point]
CC(C)(C)C1CCc2c(sc(NC(=O)C3CC=CCC3C(=O)O)c2C#N)C1 (centres undefined)	-1.1	4.11 µM [rising, partial curve]	
NC(=O)Nc1ccc(C(=O)OCC(=O)Nc2cccc(S(=O)(=O)NC3=NCCC3)c2)cc1	-6.1		
CC(C)(C)c1csc(NC(=O)c2cccnc2)n1	12.6		
CCNC(=O)CN1c2cccc3cccc(c23)S1(=O)=O	-8.62		
CCCNC(=O)N(CCOC)CC1CCCN(C2Cc3ccccc3C2)C1 (centres undefined)	3.28	0.58 µM [rising, single point]	
CCCS(=O)(=O)N1CCN(C(=O)COc2ccccc2)CC1			2.91 µM [rising, single point]
CNc1ccc(C(O)(C(F)(F)F)C(F)(F)F)cc1C(O)(C(F)(F)F)C(F)(F)F	-36.2	0.206 µM [falling, full curve]	8.2 µM [falling, partial curve, poor fit]
COc1ccc(Cl)c2sc(NC(=O)C3=COCCO3)nc12	52.2		18.4 µM [rising, single point]
CC(C)N(C(=O)CSc1n[nH]c(=O)n1CCc1ccccc1)C(C)C	-6.67		
O=C(c1cccc(-c2ccc(O)cc2)c1)N1CCOCC1	-44.9	0.231 µM [falling, full curve]	20.6 µM [falling, partial curve]
OCCN1CCN(C(=S)c2ccc(Cl)cc2)CC1	-115	20.6 µM [falling, partial curve]	25.9 µM [falling, partial curve]
COc1cc(NC(=O)c2cccc([N+](=O)[O-])c2C)ccc1NC(=O)c1ccco1	2.59	8.2 µM [rising, partial curve]	
Clc1ccc(Cn2cccn2)cn1	1.57	2.91 µM [falling, partial curve, poor fit]	
N#CC1=C(N)Oc2nc(-c3ccccc3)[nH]c2C1c1cccnc1 (centres undefined)	2.33	0.517 µM [rising, partial curve, poor fit]	
O/N=C\c1cccn1-c1ccc(Br)cc1	-11.3	0.58 µM [falling, single point]	
O=C(CCC(=O)OCC(=O)c1cccc([N+](=O)[O-])c1)Nc1ccccc1Cl	-10.3	1.46 µM [falling, full curve]	0.13 µM [falling, full curve, poor fit]
CCc1c(C)c2ccc(OCC(=O)NCC3CCC(C(=O)O)CC3)c(C)c2oc1=O (centres undefined)	41.7	4.61 µM [falling, single point]	29.1 µM [rising, single point]

Compound	cell number change [%]	AC50 [1]	AC50 [2]
CCCCC1CCC(C(=O)OCC(=O)Nc2ccc(S(N)(=O)=O)cc2)CC1 (centres undefined)		1.46 µM [falling, partial curve]	1.16 µM [falling, full curve]
COc1ccccc1-c1cn[nH]c1-c1ccc(OCc2ccccc2)cc1O	-58.6	18.4 µM [falling, single point]	16.4 µM [falling, single point]
Cc1ccc(NC(=O)N2CCN(c3ncccc3C(F)(F)F)CC2)cc1	33.1	2.91 µM [rising, full curve, poor fit]	2.59 µM [rising, full curve]
COC(=O)CN1C(=O)[C@H]2[C@@H](c3ccc(C)o3)N3C(=O)CN(CC4CC4)C(=O)[C@@]3(Cc3ccccc3)[C@H]2C1=O	24.9		
CC(Sc1nc(N)cc(=O)[nH]1)C(=O)NCC(=O)Nc1ccc(F)c(F)c1F (centres undefined)	2.85		
c1ccc(-c2nnc(SCc3nc4ccccc4[nH]3)n2Cc2ccco2)cc1	9.12	0.164 µM [rising, full curve]	
CS(=O)(=O)N(Cc1ccc(C(=O)Nc2ccccc2Sc2ccccc2)cc1)c1ccccc1	-20.7	16.4 µM [falling, single point]	
Cc1cc(/C([O-])=C(/C(=S)Nc2ccccc2)[n+]2ccccc2)c(C)n1-c1ccccc1	52.3	6.51 µM [falling, single point]	29.1 µM [rising, single point]
COc1ccc(C(CNC(=O)c2oc3ccc(C)cc3c2C)N2CCCCC2)cc1 (centres undefined)	-1.79		
COc1ccc(NC(=O)CN(C)C(=O)CNC(=O)c2sc3ccccc3c2Cl)cc1	-32.5	0.731 µM [rising, partial curve]	29.1 µM [falling, single point]
O=C(c1cc2c(s1)-c1ccccc1OC2)N1CCCC1	-32.2		32.6 µM [falling, single point]
CCN(CCO)c1ccc(-n2c(N)c(C(=O)OC)c3nc4ccccc4nc32)cc1	-11.5	29.1 µM [rising, single point]	
COCCCn1c(SCCc2ccccc2)nc2cc(OC)c(OC)cc2c1=N	-72.9	23.1 µM [falling, single point]	16.4 µM [falling, single point]
COc1ccc(CNC(=O)CCCn2nc([N+](=O)[O-])cc2C)cc1		0.651 µM [falling, single point]	
Cc1ccc(-c2nnc(SCC(=O)NC3CCCC3)n2C)cc1	7.89		
CC(=O)Oc1ccc(C2(C)CC(C)(C)Oc3cc(OC(C)=O)ccc32)c(OC(C)=O)c1 (centres undefined)	-37.3	6.51 µM [falling, single point]	14.6 µM [falling, single point]
O=C(Cn1cnc2c(cnn2-c2ccc(Cl)cc2)c1=O)NC1CCCCC1			7.31 µM [falling, single point]
CC1(c2ccccc2)CC(C)(C)N(C(=O)CSc2nnc(N)s2)c2ccccc21 (centres undefined)	2.65		
COC(=O)c1ccc(NC(=O)CCc2nnc3ccc(NCc4ccco4)nn23)cc1	-23.5	18.4 µM [falling, partial curve]	
CCCCNS(=O)(=O)c1ccc(NC(=O)C(Sc2ccccc2)c2ccccc2)cc1 (centres undefined)	-8.31	1.46 µM [rising, full curve, poor fit]	

Compound	cell number change [%]	AC50 [1]	AC50 [2]
CCOc1ccc(NC(=O)CN2CCN(C(=O)C3CCCO3)CC2)cc1 (centres undefined)	8.09	32.6 µM [rising, single point]	
Cc1cc(C(=O)COC(=O)c2ccc(O)cc2)c(C)n1CC(F)(F)F	-49.3	32.6 µM [falling, partial curve, poor fit]	25.9 µM [falling, single point]
N#Cc1ccc(C(=O)Nc2ccn(-c3ccccc3)n2)cc1	-4.15	1.64 µM [rising, single point]	
CCOC(=O)Cc1csc(NC(NC(=O)OCC)(C(F)(F)F)C(F)(F)F)n1	35.2		6.51 µM [rising, partial curve]
Cc1cccc(NC(=O)Cc2ccc(-c3ccccc3)cc2)n1	1.39	35.5 µM [rising, single point]	
CC12CCC(C(=O)Nc3ncc([N+](=O)[O-])s3)(OC1=O)C2(C)C (centres undefined)	-20.1		
CCn1c(CSc2nnc(C)n2-c2ccccc2)nc2cc(S(=O)(=O)N(C)C)ccc21	0.331	3.26 µM [rising, single point]	
NC(=O)C1CCN(C(=O)CNC(=O)c2ccc(Br)o2)CC1	17.2	0.58 µM [rising, full curve]	
Cc1ccc(C(=O)OCC(=O)Nc2ccccc2Sc2ccccc2)cc1C	-3.06		
C#CNC(=O)C1(CC=C)CCNCC1	-0.656	29.1 µM [falling, single point]	
COc1ccc(C(=O)NNC(=O)CCn2nnc(-c3ccc(Cl)cc3)n2)cc1OC	23.6	0.651 µM [rising, full curve, poor fit]	
CN(C)CCC(=O)c1ccc2c(c1)OCO2	-30.1	16.4 µM [falling, partial curve]	6.51 µM [falling, partial curve]
COc1ccc(C2C=C(C34CC5CC(CC(C5)C3)C4)NC(=S)N2)cc1 (centres undefined)	-15.7		0.164 µM [falling, full curve, poor fit]
CCN1CCN(CCC(=O)Nc2ccccc2OC)CC1	-1.46	0.146 µM [falling, full curve, poor fit]	
COc1cc(NC(=S)N2CCCCC2C)c(OC)cc1Cl (centres undefined)	-35.5		
COCCn1c(SCCOc2ccccc2)nc2ccccc2c1=O	34.9		5.8 µM [rising, full curve, poor fit]
O=C(NCc1ccccn1)c1ccc(CNS(=O)(=O)c2cccc(Cl)c2)cc1	9.37	6.51 µM [falling, single point]	
COC(=O)/C(=C\C(=O)c1ccccc1)Nc1cccc(C(F)(F)F)c1	-27.8	3.26 µM [rising, partial curve, poor fit]	
CS(=O)(=O)N1CCN(C2Cc3ccccc3C2)CC1	-36.6		1.03 µM [falling, full curve]
Cc1ccc(-n2nc(C)c(/C=N/n3c(C)n[nH]c3=S)c2Cl)cc1	47.1	3.66 µM [rising, partial curve, poor fit]	10.3 µM [rising, partial curve, poor fit]

18 of the compounds above, as a markdown table:

| Compound | cell number change [%] | AC50 [1] | AC50 [2] |
| --- | --- | --- | --- |
| Clc1ccc(Cn2cccn2)cn1 | 1.57 | 2.91 µM [falling, partial curve, poor fit] |  |
| N#CC1=C(N)Oc2nc(-c3ccccc3)[nH]c2C1c1cccnc1 (centres undefined) | 2.33 | 0.517 µM [rising, partial curve, poor fit] |  |
| O/N=C\c1cccn1-c1ccc(Br)cc1 | -11.3 | 0.58 µM [falling, single point] |  |
| O=C(CCC(=O)OCC(=O)c1cccc([N+](=O)[O-])c1)Nc1ccccc1Cl | -10.3 | 1.46 µM [falling, full curve] | 0.13 µM [falling, full curve, poor fit] |
| CCc1c(C)c2ccc(OCC(=O)NCC3CCC(C(=O)O)CC3)c(C)c2oc1=O (centres undefined) | 41.7 | 4.61 µM [falling, single point] | 29.1 µM [rising, single point] |
| CCCCC1CCC(C(=O)OCC(=O)Nc2ccc(S(N)(=O)=O)cc2)CC1 (centres undefined) |  | 1.46 µM [falling, partial curve] | 1.16 µM [falling, full curve] |
| COc1ccccc1-c1cn[nH]c1-c1ccc(OCc2ccccc2)cc1O | -58.6 | 18.4 µM [falling, single point] | 16.4 µM [falling, single point] |
| Cc1ccc(NC(=O)N2CCN(c3ncccc3C(F)(F)F)CC2)cc1 | 33.1 | 2.91 µM [rising, full curve, poor fit] | 2.59 µM [rising, full curve] |
| COC(=O)CN1C(=O)[C@H]2[C@@H](c3ccc(C)o3)N3C(=O)CN(CC4CC4)C(=O)[C@@]3(Cc3ccccc3)[C@H]2C1=O | 24.9 |  |  |
| CC(Sc1nc(N)cc(=O)[nH]1)C(=O)NCC(=O)Nc1ccc(F)c(F)c1F (centres undefined) | 2.85 |  |  |
| c1ccc(-c2nnc(SCc3nc4ccccc4[nH]3)n2Cc2ccco2)cc1 | 9.12 | 0.164 µM [rising, full curve] |  |
| CS(=O)(=O)N(Cc1ccc(C(=O)Nc2ccccc2Sc2ccccc2)cc1)c1ccccc1 | -20.7 | 16.4 µM [falling, single point] |  |
| Cc1cc(/C([O-])=C(/C(=S)Nc2ccccc2)[n+]2ccccc2)c(C)n1-c1ccccc1 | 52.3 | 6.51 µM [falling, single point] | 29.1 µM [rising, single point] |
| COc1ccc(C(CNC(=O)c2oc3ccc(C)cc3c2C)N2CCCCC2)cc1 (centres undefined) | -1.79 |  |  |
| COc1ccc(NC(=O)CN(C)C(=O)CNC(=O)c2sc3ccccc3c2Cl)cc1 | -32.5 | 0.731 µM [rising, partial curve] | 29.1 µM [falling, single point] |
| O=C(c1cc2c(s1)-c1ccccc1OC2)N1CCCC1 | -32.2 |  | 32.6 µM [falling, single point] |
| CCN(CCO)c1ccc(-n2c(N)c(C(=O)OC)c3nc4ccccc4nc32)cc1 | -11.5 | 29.1 µM [rising, single point] |  |
| COCCCn1c(SCCc2ccccc2)nc2cc(OC)c(OC)cc2c1=N | -72.9 | 23.1 µM [falling, single point] | 16.4 µM [falling, single point] |
